Data on 14 compounds can be found in the odorant receptor screen of Mainland et al. (2015).

Chains of the proteins cited; added tags and fusions are not shown. A line that says so, or that is headed by a name, gives the form on record, which may keep a tag or linker.
OR11H13, as listed by the source: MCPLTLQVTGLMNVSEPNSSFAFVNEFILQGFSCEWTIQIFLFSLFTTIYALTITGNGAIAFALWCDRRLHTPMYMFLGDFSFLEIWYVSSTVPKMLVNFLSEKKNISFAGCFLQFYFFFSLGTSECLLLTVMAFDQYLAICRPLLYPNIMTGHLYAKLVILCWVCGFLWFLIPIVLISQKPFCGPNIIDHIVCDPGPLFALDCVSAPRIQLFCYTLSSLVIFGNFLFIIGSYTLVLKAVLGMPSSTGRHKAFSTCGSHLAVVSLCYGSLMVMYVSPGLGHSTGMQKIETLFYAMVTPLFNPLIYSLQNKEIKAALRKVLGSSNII

Values joined by “and” are separate entries in the source; they are usually repeats but may differ in a detail not shown here. Equal entries are not always repeated. Some of the results follow. Single wells; the ratio to wells without odorant was worked out here, and repeats agree poorly.

Assay in all cases: odorant receptor activation (CRE luciferase / Renilla) (fold of no-odor wells); higher = more activation
Holding throughout (details): 100 µM

Assay [1] concerns OR10R2 clone 1400.
Assay [2] deals with OR10T2 clone 1032.
In assay [3] the test system is OR10V1 Q101L/V117A/Q123W clone 1520.
Assay [4] deals with OR10W1 R263Q clone 1176.
For assay [5], the system named is OR10X1 clone 1368.
For assay [6], the system named is OR10X1 clone 1516.
Assay [7] deals with OR10Z1 clone 1026.
Assay [8] concerns OR11A1 clone 1062.
In assay [9] the test system is OR11H1 clone 1558.
In assay [10] the test system is OR11H12 clone 1302.
Assay [11] relates to OR11H13 clone 1435.
The subject of assay [12] is OR11H4 clone 1263.
In assay [13] the test system is OR11H4 clone 1423.
The test system of assay [14] is OR11H6 clone 1275.
The test system of assay [15] is OR11L1 G108S/F117L/A142T/R171P clone 1031.
The test system of assay [16] is OR12D2 V47F/L56P/S104F/F113L/L120R/V159I clone 1373.
In assay [17] the test system is OR12D2 clone 1075.
Assay [18] deals with OR12D3 clone 1071.
The subject of assay [19] is OR13A1 clone 1107.
The test system of assay [20] is OR13C2 clone 1717.

On to `CCCCCCCCC=O` [nonyl aldehyde], for which the odorant receptor activation in assay [1] turned out to be 1.01; in assay [2], 0.998; in [3] it was 0.973; in assay [4] it was 1.17; in [5] it was 0.997; in [6], 0.912. For the same compound, the odorant receptor activation worked out at 0.953 in [7]; 1.27 in assay [8]; 0.772 in [9]; 1.03 in assay [10]; 1.21 in assay [11]; 0.981 in assay [12]. Also, the odorant receptor activation in [13] worked out at 1.01; in assay [14], 1; in [15] it was 1.04; in [16], 0.916; in assay [17], 0.975; in assay [18], 1.26. The odorant receptor activation in [19] is 1.27; in assay [20], 0.716.
For the compound `CC(C)=CCCC(C)=CC=O` [citral], the odorant receptor activation turned out to be 0.15 in [1]; 1.02 in assay [2]; 1.12 in assay [3]; 1.04 in assay [4]; 0.19 in assay [5]; 1.44 in assay [6]. Moreover, the odorant receptor activation stood at 1.33 in [7]; 0.923 in assay [8]; 1.19 in assay [9]; 1.42 in [10]; 0.183 in assay [11]; 1.2 in assay [12]. Moreover, the odorant receptor activation in assay [13] stood at 0.179; in [14], 1.11; in [15] it was 1.14; in assay [16], 0.279; in [17], 1.41; in [18] it was 1.05. Further, the odorant receptor activation in assay [19] is 1.25; in [20], 0.914.
As to `CCCC(=O)O` [butyric acid], the odorant receptor activation in assay [1] was determined as 0.16; in assay [2], 1.07; in assay [3], 1.03; in assay [4], 1.07; in [5], 0.202; in assay [6], 1.22. Also, the odorant receptor activation in [7] was determined as 1.12; in [8], 1.18; in assay [9], 0.922; in assay [10] it was 0.951; in [11], 0.191; in assay [12] it was 0.913. Besides, the odorant receptor activation in [13] was 0.139; in assay [14] it was 1.02; in assay [15], 1.12; in assay [16], 0.22; in [17] it was 1.34; in [18] it was 1.23. Moreover, the values for the odorant receptor activation in assay [19] and in assay [20] were 1.15 and 0.766, respectively.
On to `CC1CCC(C(C)C)C(O)C1` (single isomer, unassigned; (-)) [(-)-menthol], for which the odorant receptor activation in assay [1] amounted to 0.364; in assay [2], 3.94; in assay [3], 2.97; in assay [4], 1.11; in [5], 0.792; in [6] it was 3.77. In addition, the odorant receptor activation worked out at 3.43 in assay [7]; 6.31 in assay [8]; 1.12 in assay [9]; 1.17 in assay [10]; 2.09 in assay [11]; 0.643 in [12]. In addition, the odorant receptor activation in assay [13] came to 0.676; in assay [14], 0.392; in [15], 3.4; in assay [16] it was 0.146; in [17], 2.24; in assay [18] it was 4.63. Besides, the odorant receptor activation in [19] was found to be 12.1; in assay [20] it was 0.761.
Turning to `CC1=CCC(C(C)(C)O)CC1` (stereo not given) [terpineol], the odorant receptor activation was found to be 0.923 in assay [1]; 1.08 in assay [2]; 0.773 in assay [3]; 1.29 in assay [4]; 0.68 in assay [5]; 0.666 in [6]. The odorant receptor activation in assay [7] was 0.915; in assay [8], 1.68; in [9] it was 1.23; in [10], 1.04; in assay [11], 1.15; in assay [12], 0.958. The odorant receptor activation in assay [13] is 0.949; in [14], 0.855; in [15], 0.795; in assay [16] it was 0.917; in [17] it was 1.03; in [18], 0.9. Further, the odorant receptor activation in assay [19] came to 1.16; in assay [20] it was 1.03.
Consider `CC(=O)OCC=C(C)CCC=C(C)C` [geranyl acetate], for which the odorant receptor activation was 1.09 in [1]; 1.62 in assay [2]; 0.644 and 1.51 in assay [3]; 1.27 in [4]; 1.62 in assay [5]; 1.16 and 1.71 in assay [6]. In addition, the odorant receptor activation was 2.31 in [7]; 2.17 in assay [8]; 1.29 in assay [9]; 1.38 and 0.95 in [10]; 0.859 in assay [11]; 1.14 and 1.67 in [12]. For the same compound, the odorant receptor activation in assay [13] was 1.24; in assay [14], 0.882 and 1.14; in assay [15] it was 1.06; in assay [16] it was 1.04; in [17], 2.19; in assay [18], 1.04. Besides, the odorant receptor activation was 2.02 in assay [19] and 1.4 in assay [20].
Consider `COC(=O)c1ccccc1O` [methyl salicylate], for which the odorant receptor activation came out at 1.39 in [1]; 1.02 in assay [2]; 1.02 in assay [3]; 0.796 in assay [4]; 0.901 in [5]; 0.885 in assay [6]. In addition, the odorant receptor activation in assay [7] came to 0.925; in assay [8], 1.13; in [9] it was 0.892; in [10], 0.991; in assay [11] it was 1.65; in assay [12] it was 0.938. Also, the odorant receptor activation in assay [13] is 1.25; in [14], 0.826; in assay [15], 1.05; in assay [16] it was 1.05; in assay [17] it was 1.09; in assay [18], 1.44. Also, the odorant receptor activation came out at 1.27 in assay [19] and 0.745 in [20].
`COc1cc(C=O)ccc1O` [vanillin]: the odorant receptor activation in assay [1] is 0.896; in assay [2], 1.07; in [3], 0.942; in [4] it was 1.04; in assay [5], 0.764; in [6], 0.933. Also, the odorant receptor activation was 0.822 in [7]; 1.55 in [8]; 1.02 in assay [9]; 0.963 in assay [10]; 1.1 in [11]; 1.05 in [12]. In addition, the odorant receptor activation worked out at 0.771 in assay [13]; 0.944 in assay [14]; 0.825 in assay [15]; 0.789 in [16]; 0.989 in assay [17]; 0.945 in assay [18]. In addition, the odorant receptor activation in assay [19] amounted to 0.729; in assay [20], 0.705.
For the compound `C=CC(C)(O)CCC=C(C)C` (stereo not given) [linalool], the odorant receptor activation stood at 1.2 in [1]; 1.2 in assay [2]; 1.13 in [3]; 1.15 in [4]; 1.04 in [5]; 0.87 in [6]. Besides, the odorant receptor activation in assay [7] was determined as 1.11; in assay [8], 1.37; in [9], 0.713; in [10] it was 1.32; in assay [11] it was 1.2; in assay [12], 0.896. Also, the odorant receptor activation in assay [13] turned out to be 0.853; in [14] it was 0.981; in assay [15] it was 1.27; in assay [16], 0.829; in assay [17], 1.29; in assay [18], 1.48. Moreover, the odorant receptor activation came out at 1.51 in assay [19] and 0.952 in assay [20].
`CC1CCC(C(C)C)C(O)C1` (single isomer, unassigned; (+)) [(+)-menthol]: the odorant receptor activation in [1] came out at 0.635; in assay [2], 4.53; in assay [3], 1.44; in [4], 1.17; in assay [5], 0.56; in [6], 1.11. Further, the odorant receptor activation was determined as 3.35 in assay [7]; 4.42 in assay [8]; 1.01 in assay [9]; 1.2 in [10]; 1.88 in assay [11]; 0.783 in [12]. Besides, the odorant receptor activation in assay [13] is 0.933; in assay [14], 0.792; in [15], 4.3; in assay [16] it was 0.221; in assay [17], 1.96; in [18], 4.8. Besides, the figures for the odorant receptor activation in [19] and in assay [20] were 8.9 and 0.589, respectively.
In the case of `CCCCO` [1-butanol], the odorant receptor activation came to 0.587 in assay [1]; 3.27 in assay [2]; 0.987 in assay [3]; 1.01 in assay [4]; 0.663 in assay [5]; 1.58 in [6]. Besides, the odorant receptor activation came to 3.15 in assay [7]; 3.31 in [8]; 1.27 in assay [9]; 1.22 in [10]; 2.1 in assay [11]; 0.96 in assay [12]. For the same compound, the odorant receptor activation amounted to 0.833 in assay [13]; 0.878 in assay [14]; 4.65 in assay [15]; 0.192 in assay [16]; 2.81 in assay [17]; 3.33 in assay [18]. For the same compound, the odorant receptor activation in [19] came out at 10.6; in [20], 0.551.
With `CCCCCCCC=CC=O` [2-decenal], the odorant receptor activation in assay [1] stood at 0.964; in assay [2], 17.2; in [3], 1.39; in assay [4], 0.766; in [5] it was 1.1; in [6], 1.54. Moreover, the odorant receptor activation came to 12.7 in assay [7]; 4.13 in assay [8]; 1.45 in assay [9]; 2.22 in [10]; 2.42 in [11]; 1.55 in [12]. For the same compound, the odorant receptor activation stood at 1.03 in [13]; 1.04 in assay [14]; 8.39 in assay [15]; 0.413 in [16]; 2.69 in assay [17]; 5.27 in assay [18]. Moreover, the odorant receptor activation in assay [19] worked out at 16.7; in assay [20] it was 0.88.
For the compound `C=CCSCC=C` [diallyl sulfide], the odorant receptor activation in [1] was 1.17; in assay [2], 1.06; in [3] it was 1.69; in assay [4], 1.42; in assay [5], 0.954; in [6], 1.31. The odorant receptor activation stood at 0.898 in assay [7]; 0.954 in assay [8]; 0.859 in [9]; 1.03 in assay [10]; 1.28 in assay [11]; 0.88 in [12]. Further, the odorant receptor activation in [13] came out at 1.39; in [14] it was 0.967; in [15] it was 0.975; in assay [16], 1.24; in assay [17], 0.889; in [18] it was 0.958. The odorant receptor activation in [19] was 1.14; in [20] it was 0.8.
On to `CCCCCCOC(=O)CCC` [hexyl butyrate], for which the odorant receptor activation in assay [1] was 0.78; in assay [2], 0.509; in [3] it was 0.729 and 1.1; in [4], 1.16; in assay [5], 0.838; in assay [6], 1.1 and 1.01. Also, the odorant receptor activation was 0.602 in assay [7]; 0.59 in assay [8]; 0.941 in [9]; 1.2 and 0.666 in [10]; 0.682 in assay [11]; 1.29 and 1.32 in [12]. The odorant receptor activation in assay [13] is 0.953; in [14], 0.814 and 0.834; in assay [15], 0.406; in [16] it was 0.816; in assay [17], 0.873; in [18] it was 0.711. Moreover, the odorant receptor activation in assay [19] was determined as 1.1; in [20], 1.11.
